Experimental data reported in publication PMC6449874.
Results are given in words; binding and its absence hold for the method and conditions named. In cells and extracts the contact can be indirect. For some assays here: Binding can be weak; no strength is given.

Amino acid sequences for entries named in this document (tags omitted). A change or cut given only in a name is not applied to a line headed by its entry.
UniProt Q9ATD6: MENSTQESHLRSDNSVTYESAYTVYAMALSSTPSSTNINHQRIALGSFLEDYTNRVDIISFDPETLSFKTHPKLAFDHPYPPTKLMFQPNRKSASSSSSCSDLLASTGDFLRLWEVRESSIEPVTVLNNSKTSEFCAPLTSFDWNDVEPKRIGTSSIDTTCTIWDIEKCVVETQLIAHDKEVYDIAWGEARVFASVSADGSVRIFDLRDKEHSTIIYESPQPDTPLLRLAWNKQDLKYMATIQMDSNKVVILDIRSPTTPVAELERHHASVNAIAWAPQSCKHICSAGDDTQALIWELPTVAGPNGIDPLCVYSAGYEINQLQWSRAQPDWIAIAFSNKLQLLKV

Assays:
Test in all cases: pull-down; LUMIER pulldown: one protein fused to ProtA, the other to Rluc, each single-expressed in HEK293TM cells; lysis buffer 20 mM Tris pH 7.5, 250 mM NaCl, 1.1% Triton X-100, 10 mM EDTA, 10 mM DTT; sheep anti-rabbit IgG-coated Dynabeads, 1 h on ice; Rluc on the beads as percent of input; +: >= 2.5%, w: 1.5%-2.5%, -: < 1.5%; two grades in each cell
[1] = target: T1, AtEGL3 (Arabidopsis thaliana) (UniProt Q9CAD0)
T1 sequence: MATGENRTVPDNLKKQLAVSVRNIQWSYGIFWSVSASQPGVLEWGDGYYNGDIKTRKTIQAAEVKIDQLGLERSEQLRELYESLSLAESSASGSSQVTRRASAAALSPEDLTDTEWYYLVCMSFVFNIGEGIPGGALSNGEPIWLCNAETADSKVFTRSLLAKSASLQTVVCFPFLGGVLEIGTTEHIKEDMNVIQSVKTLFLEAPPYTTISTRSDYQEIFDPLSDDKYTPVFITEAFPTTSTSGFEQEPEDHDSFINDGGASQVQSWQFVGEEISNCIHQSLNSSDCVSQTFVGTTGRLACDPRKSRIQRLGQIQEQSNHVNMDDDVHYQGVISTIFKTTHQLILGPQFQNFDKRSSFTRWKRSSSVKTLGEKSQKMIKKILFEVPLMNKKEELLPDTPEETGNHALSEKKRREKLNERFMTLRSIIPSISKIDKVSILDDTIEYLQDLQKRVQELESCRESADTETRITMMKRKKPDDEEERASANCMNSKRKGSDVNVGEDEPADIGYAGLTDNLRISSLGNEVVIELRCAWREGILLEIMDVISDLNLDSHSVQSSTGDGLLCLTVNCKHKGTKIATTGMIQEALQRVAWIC

[2] = target: T2, AtGL1 (Arabidopsis thaliana) (UniProt P27900)
T2 sequence: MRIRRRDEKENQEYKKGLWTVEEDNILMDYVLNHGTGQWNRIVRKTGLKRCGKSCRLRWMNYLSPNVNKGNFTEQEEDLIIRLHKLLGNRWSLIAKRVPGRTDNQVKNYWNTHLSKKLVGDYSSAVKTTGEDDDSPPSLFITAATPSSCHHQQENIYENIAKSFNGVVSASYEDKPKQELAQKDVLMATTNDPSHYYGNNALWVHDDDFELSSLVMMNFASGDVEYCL

[3] = target: T3, AtPAP1 (Arabidopsis thaliana) (UniProt Q9FE25)
T3 sequence: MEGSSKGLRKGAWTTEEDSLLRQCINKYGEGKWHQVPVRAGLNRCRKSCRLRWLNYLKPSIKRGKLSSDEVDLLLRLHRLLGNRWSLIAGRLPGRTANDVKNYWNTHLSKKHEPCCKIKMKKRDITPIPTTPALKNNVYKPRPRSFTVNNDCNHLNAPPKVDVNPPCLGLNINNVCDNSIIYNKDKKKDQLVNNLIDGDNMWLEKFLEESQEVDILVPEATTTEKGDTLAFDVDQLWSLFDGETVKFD

[4] = target: T4, AtTT2 (Arabidopsis thaliana) (UniProt Q9FJA2)
T4 sequence: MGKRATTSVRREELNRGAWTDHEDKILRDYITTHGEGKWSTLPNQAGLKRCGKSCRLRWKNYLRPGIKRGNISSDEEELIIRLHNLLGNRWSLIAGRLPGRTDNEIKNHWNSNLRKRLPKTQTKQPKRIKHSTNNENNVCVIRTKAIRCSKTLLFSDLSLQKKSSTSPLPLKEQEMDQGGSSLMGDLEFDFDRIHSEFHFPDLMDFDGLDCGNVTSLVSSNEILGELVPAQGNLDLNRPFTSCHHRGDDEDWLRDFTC

[5] = target: T5, AtTT8 (Arabidopsis thaliana) (UniProt Q9FT81)
T5 sequence: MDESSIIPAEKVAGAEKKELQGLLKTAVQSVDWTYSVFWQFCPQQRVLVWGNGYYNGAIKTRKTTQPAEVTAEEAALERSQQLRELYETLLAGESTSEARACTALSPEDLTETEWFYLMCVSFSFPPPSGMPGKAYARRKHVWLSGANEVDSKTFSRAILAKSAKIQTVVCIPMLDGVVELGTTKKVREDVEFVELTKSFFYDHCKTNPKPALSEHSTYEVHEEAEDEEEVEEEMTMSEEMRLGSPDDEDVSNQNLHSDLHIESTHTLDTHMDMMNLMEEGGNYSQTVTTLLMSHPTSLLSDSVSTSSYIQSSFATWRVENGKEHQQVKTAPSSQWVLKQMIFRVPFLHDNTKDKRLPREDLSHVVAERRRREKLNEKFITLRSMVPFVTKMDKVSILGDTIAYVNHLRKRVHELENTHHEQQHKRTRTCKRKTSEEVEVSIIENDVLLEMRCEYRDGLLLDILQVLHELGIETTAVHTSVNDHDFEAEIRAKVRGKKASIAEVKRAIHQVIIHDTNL

Row | Substance | binding [1] | binding [2] | binding [3] | binding [4] | binding [5]
1 | ZmPAC1 (Zea mays) | binds | no binding | no binding | no binding | binds
2 | AaTTG1 (Arabis alpina) | binds | no binding | no binding | no binding | binds
3 | GhTTG4 (Gossypium hirsutum) | no binding | no binding | no binding | no binding | no binding
4 | GhTTG2 (Gossypium hirsutum) | no binding | no binding | no binding | no binding | no binding

The next lines start with the values.

Row | binding [1] | binding [2] | binding [3] | binding [4] | binding [5] | Substance
5 | binds | no binding | no binding | binds weakly | no binding | GhTTG3 (Gossypium hirsutum)
6 | binds | no binding | no binding | no binding | binds | GhTTG1 (from UniProt Q9ATD6)
7 | no binding | no binding | no binding | no binding | no binding | ZmMP1 (Zea mays)
